Measurements: patent US20220332844A1 (ORIONIS BIOSCIENCES, published 2022)
These are yes or no findings as the source states them, for the method shown. Some results given as binding are weak or reduced against the parent protein; the word gives no strength.

Chains of the proteins cited; added tags and fusions are not shown. Lines headed by an entry give the natural chain unless they say otherwise; changes in a name come on top.
UniProt Q12884: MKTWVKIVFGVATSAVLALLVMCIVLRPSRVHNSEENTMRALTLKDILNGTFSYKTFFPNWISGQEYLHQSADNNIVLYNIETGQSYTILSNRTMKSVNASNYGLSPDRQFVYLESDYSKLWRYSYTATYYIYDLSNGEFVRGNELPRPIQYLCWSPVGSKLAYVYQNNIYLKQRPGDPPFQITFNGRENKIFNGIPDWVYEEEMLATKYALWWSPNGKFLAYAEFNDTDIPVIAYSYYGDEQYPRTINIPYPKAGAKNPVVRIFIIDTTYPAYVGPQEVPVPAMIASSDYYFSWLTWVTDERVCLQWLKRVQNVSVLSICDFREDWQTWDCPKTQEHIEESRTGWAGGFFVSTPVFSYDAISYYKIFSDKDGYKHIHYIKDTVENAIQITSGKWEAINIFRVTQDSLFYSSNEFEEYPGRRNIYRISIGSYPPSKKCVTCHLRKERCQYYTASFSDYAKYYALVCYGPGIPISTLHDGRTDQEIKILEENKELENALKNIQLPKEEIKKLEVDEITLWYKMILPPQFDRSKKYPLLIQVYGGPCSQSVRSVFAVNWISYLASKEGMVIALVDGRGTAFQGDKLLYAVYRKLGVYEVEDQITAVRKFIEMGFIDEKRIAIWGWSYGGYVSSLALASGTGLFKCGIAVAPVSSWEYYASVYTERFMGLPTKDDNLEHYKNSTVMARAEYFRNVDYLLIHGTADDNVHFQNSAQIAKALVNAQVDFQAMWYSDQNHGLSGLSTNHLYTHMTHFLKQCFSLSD

What follows are binders tested against recombinant human FAPa extracellular domain (human) (UniProt Q12884) (assay: library panning on coated antigen, positive colonies; members in Table 6).

Row | binding | Binder
1 | binds | 3PE92 (VHH) VHH: QVQLQESGGGLVQVGGSLRLSCAASGSTFSINNAMGWYRQAPGKRREWVAGISSGGVTHYPDSVKGRFTISRDNAKNIVYLQMNSPKPEDTAVYYCNLWPPRASPSGSIYWGQGTQVTVSS
2 | binds | 2PE48 (VHH) VHH: QVQLQESGGGLVQPGGSLRLSCAVSGTMLSRNAMGWYRQAPGKPRQWVAGITSDGLGNYVGFAKGRFTISRDNAKNTVYLQMNTLKPDDTAVYHCNFWPPPSGRPIWGQGTQVTVSS
3 | binds | 3PE60 (VHH) VHH: QVQLQESGGGLVQPGGSLRLSCAVSGTMLSRNAMGWYRQAPGKQRQWVAGITSDGLGNYVDFVKGRFTISRDNARNTVYLQMNTLKPDDTAVYYCNFWPPPSDRPIWGQGTQVTVSS
4 | binds | 2PE34 (VHH) VHH: QVQLQESGGGLVQAGGSLRLSCAVSGSTARLDAMGWYRQAPGKQREWVAGIDSADITDYARFVKGRFTISRDNAKNTVYLQMNSLKPEDTAVYYCNKWPPSVPPNWGHGTQVTVSS
5 | binds | 2PE1 (VHH) VHH: QVQLQESGGGLVQAGGSLRLSCAASGSIFGINAVGWYRQAPGKQRELVATFTRGGDINYADSVKGRFTIFRDNAANTVYLQMNSLKAEDTAVYYCNTPPRIGRGYWGQGTQVTVSS
6 | binds | 3PE11 (VHH) VHH: QVQLQESGGGLVQPGGSLRLSCAASGSIFGINAVGWYRQAPGKQRELVATFTRGGDINYADSVKGRFTIFRDNAANTVYLQMNSLKAEDTAVYYCNTPPRIGRGYWGQGTQVTVSS
7 | binds | 2PE35 (VHH) VHH: QVQLQESGGGLVQVGGSLRLSCAASGSIFGINAVGWYRQAPGKQRELVATFTRGGDINYADSVKGRFTIFRDNAANTVYLQMNSLKAEDTAVYYCNTPPRIGRGYWGQGTQVTVSS
8 | binds | 3PE69 (VHH) VHH: QVQLQESGGGLVQPGGSLTLSCTTSEFTLAYFGVGWFRQAPGKRRDWVAGITTDGITKYPDSLKGRFTISRDNAKNTVYLQMNSLKPEDTAVYYCNLWPPRASPSGRLYWGQGTQVTVSS
9 | binds | 2PE18 (VHH) VHH: QVQLQESGGGLVQAGGSLRLSCADSGSTFGLSAMGWYRQTPGKQRELVASITSDGRTNYADSVKGRFTISRVNPKRTVYLQMNSLKPDDTAVYVCNARFGIRDFWGQGTQVTVSS
10 | binds | 2PE22 (VHH) VHH: QVQLQESGGGLVQPGGSLRLSCADSGSTFGLSAMGWYRQTPGKQRELVASITSDGRTNYADSVKGRFTISRVNPKRTVYLQMNSLKPDDTAVYVCNARFGIRDFWGQGTQVTVSS
11 | binds | 3PE61 (VHH) VHH: QVQLQESGGGLVRPGGSLRLSCADSGSTFGLSAMGWYRQSPGKQRELVASIISDGRTNYADSVKGRFTISRVNAKRTVYLQMNSLKPEDTAVYVCNARFGIRDFWGQGTQVTVSS
12 | binds | 3PE16 (VHH) VHH: QVQLQESGGGLVQAGGSLRLSCADSGSTFGLSAMGWYRLTPGKQRELVASITSDGRTNYADSVKGRFTISRVNPKRTVYLQMNSLKPDDTAVYVCNARFGIRDFWGQGTQVTVSS
13 | binds | 3PE4 (VHH) VHH: QVQLQESGGGLVQAGGSLRLSCADSGSTFGLGAMGWYRQSPGKQRELVASITSGGRTNYSDSVKGRFTISRVNPKRIVYLQMNSLKPEDTAVYVCNARFGIRDFWGQGTQVTVSS
14 | binds | 3PE63 (VHH) VHH: QVQLQESGGGLVQAGGSLRLSCADSGSTFGLSAMGWYRQSPGKQRELVASIISDGRTNYADSVKGRFTISRVNAKRTVYLQMNSLKPEDTAVYVCNARFGIRDFWGQGTQVTVSS
15 | binds | 3PE70 (VHH) VHH: QVQLQESGGGLVQAGGSLRLSCADSGSTFGLGAMGWYRQSPGKQRELVASITSGGRTNYSDSVKGRFTISRVTPKRIVYLQMNSLKPEDTAVYVCNARFGIRDFWGQGTQVTVSS
16 | binds | 3PE33 (VHH) VHH: QVQLQESGGGLVQAGGSLRLSCADSGSTFGLGAMGWYRQSPGKQRELVASITSGGRTNYADSVKGRFTISRENPKRTVYLQMNSLKPEDTAVYVCNARFGIRDFWGQGTQVTVSS
17 | binds | 3PE46 (VHH) VHH: QVQLQESGGGLVQAGGSLRLSCADSGSTFGLGAMGWYRQSPGKQRELVASITSGGRTNYADSVKGRFTISRVGAKRTVYLQMNSLRPEDTAVYVCNARFGIRDFWGQGTQVTVSS

Row | binding | Binder
18 | binds | 3PE55 (VHH) VHH: QVQLQESGGGLVQAGGSLRLSCADSGSTFGLGAMGWYRQSPGKQRELVASITSGGRTNYADSVKGRFTISRVSAKRTVYLQMNSLKPEDTAVYVCNARFGIRDFWGQGTQVTVSS
19 | binds | 3PE26 (VHH) VHH: QVQLQESGGGLVQAGGSLRLSCADSGSTFGLGAMGWYRQSPGKQRELVASITSGGRTNYADSVKGRFTISRVGAKRTVYLQMNSLKPEDTAVYVCNARFGIRDFWGQGTQVTVSS
20 | binds | 2PE26 (VHH) VHH: QVQLQESGGGLVQAGGSLRLSCADSGSTFGLGAMGWYRQSPGKQRELVASITSGGRTNYADSVKGRFTISRVNAKRTVYLQMNSLKPEDTAVYVCNARFGIRDFWGQGTQVTVSS
21 | binds | 3PE22 (VHH) VHH: QVQLQESGGGLVQPGGSLRLSCADSGSTFGLGAMGWYRQSPGKQRELVASITSGGRTNYADSVKGRFTISRVGAKRTVYLQMNSLKPEDTAVYVCNARFGIRDFWGQGTQVTVSS
22 | binds | 3PE90 (VHH) VHH: QVQLQESGGGLVQVGGSLRLSCAASGSTFSINAMGWYRQAPGKRREWVAGITSGVTHYPDSVKGRFTISRDNAKNTVYLQMNSLKPEDTAVYYCNLWPPRASPSGSIYWGQGTQVTVSS
23 | binds | 3PE77 (VHH) VHH: QVQLQESGGGLVQPGGSLRLSCADSGSTFTINAMAWYRQAPGKRRELVAGISGGVTNYPDSVKGRFTISRDNAKNTVYLQMSSLKPEDTAVYYCNLWPPRASPDGRVYWSQGTQVTVSS
24 | binds | 2PE19 (VHH) VHH: QVQLQESGGGLVQPGGSLRLSCADSGSTFTINAMAWYRQAPGKRRELVAGISGGVTNYPDSVKGRFTISRDNAKNTVYLQMSSLKPEDTAVYYCNLWPPRASPDGRVYWGQGTQVTVSS
25 | binds | 3PE21 (VHH) VHH: QVQLQESGGGLVQAGESLRLSCAASGRDFRDNSMGWYRQAPGKRREWVAGISSGGVTHYPDSVKGRFTISRDNAKNIVYLQMDSLKPEDTAVYYCNLWPPRASPSGSIYWGQGTQVTVSS
26 | binds | 3PE28 (VHH) VHH: QVQLQESGGGLVQPEGSLRLSCAASGSISSINAMAWYRQAPGKRRELVAGIDGGGVTNYPDSVKGRFTISRDNAKNTVYLQMSSLKPEDTAVYYCNLWPPRASPGGRVYWGQGTQVTVSS
27 | binds | 3PE49 (VHH) VHH: QVQLQESGGGLVQPGGSLRLSCAGSGSTFSINAMAWYRQAPGERRELVAGISGDNITNYPNSVKGRFTISRDNAKNTVYLQMSSLKPEDTAVYYCNLWPPRASPGGRVYWGQGTQVTVSS
28 | binds | 3PE47 (VHH) VHH: QVQLQESGGGLVQPGGSLRLSCAASGSTFSINAVAWYRQAPGKRRELVAGISGGGVTNYPDSVKGRFTISRDNAKNTVYLQMSSLIPEDTAVYYCNLWPPRASPGGRVYWGQGTQVTVSS
29 | binds | 2PE20 (VHH) VHH: QVQLQESGGGLVQPGGSLRLSCAASESTFSINAVAWYRQAPGKRRELVAGISGGGVTNYPDSVKGRFTVSRDNAKNIVYLQMSSLKPEDTAVYYCNLWPPRASPGGRVYWGQGTQVTVSS
30 | binds | 3PE82 (VHH) VHH: QVQLQESGGGLVQPEGSLRLSCAASGSISSINAMAWYRQAPGKRRELVAGIDGGGVTNYPDSVKGRFTISRDNAKNTVYLQMSSLKPEDTAVYYCNLWPPRASPGGRVYWGKGTQVTVSS
31 | binds | 3PE44 (VHH) VHH: QVQLQESGGGLVQPGGSLRLSCAASGSTFSINAMAWYRQAPGKRRELVAGISGGDVTHYPDSVKGRFTISRDNAKNTVYLQMSSLKPEDTAVYYCNLWPPRASPGGRVYWGQGTQVTVSS
32 | binds | 3PE62 (VHH) VHH: QVQLQESGGGLVQPGGSLRLSCAASGSTFSSNAMAWYRQAPGKRRELVAGISGGGVTNYPDSVKGRFTISRDNAKNTVYLQMSSLKPEDTAVYYCNLWPPRASPDGGVYWGQGTQVTVSS
33 | binds | 3PE72 (VHH) VHH: QVQLQESGGGLVQAGGSLRLSCAASGSTFSGNAMAWYRRAPGKRRELVAGISGGGVTNYPDSVKGRFTISRDNAKNTVYLQMSSLKPEDTAVYYCNLWPPRVSPGGRVYWGQGTQVTVSS
34 | binds | 3PE43 (VHH) VHH: QVQLQESGGGLVQAGGSLRLSCAASGSTFSVNAVAWYRQAPGKRRELVAGISGGGVTNYPDSVKGRFTISRDNAKNTVYLQMSSLKPEDTAVYYCNLWPPRASPDGRVYWGQGTQVTVSS
